# Measured values as given in publication doi:10.1101/2023.09.13.557651v1 (biorxiv, 2023).
# Test system: RcDT1
# Test: inhibition of DHNA prenylation by yeast microsomes, UPLC
# Format: biochemical, Rubia cordifolia
# Conditions: DMAPP, Mg2+, inhibitor at same concentration as substrate
row,Compound,% activity of control at inhibitor concentration equal to substrate
1,"Oc1ccc(O)c2ccccc12 [compound 8, 1,4-dihydroxynaphthalene]",5.7%
2,"Oc1ccc2ccccc2c1O [compound 27, 1,2-DHN]",0%
